Experimental data as given in PubChem BioAssay AID1439 (NMMLSC, 2008).
Hit rate of the full screen: of about 220,000 compounds, about 770 (0.35%) were called active. The shares of active, inactive and inconclusive entries below differ from those in the screen. No stated cut-off is given here; in the data, active means binding response below about 49% or above about 150%; inconclusive means no clear call, values can overlap the other calls; inactive means in between.

The chains behind the UniProt entries cited, without tags or fusion partners.
UniProt P09471, whole entry, looked up: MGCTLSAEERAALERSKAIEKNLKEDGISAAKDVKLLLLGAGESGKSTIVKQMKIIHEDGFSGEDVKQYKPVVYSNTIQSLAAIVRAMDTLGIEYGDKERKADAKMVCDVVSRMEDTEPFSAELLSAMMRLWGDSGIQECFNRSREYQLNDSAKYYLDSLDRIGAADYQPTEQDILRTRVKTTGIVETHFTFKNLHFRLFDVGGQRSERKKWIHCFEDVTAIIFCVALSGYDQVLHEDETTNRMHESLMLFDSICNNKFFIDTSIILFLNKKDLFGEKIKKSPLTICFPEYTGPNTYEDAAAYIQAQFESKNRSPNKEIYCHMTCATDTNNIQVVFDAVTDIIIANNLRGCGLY

Target: Guanine nucleotide-binding protein G(o) subunit alpha (Homo sapiens) (UniProt P09471)
Test: RGS7-Galphao binding modulators, primary screen, biochemical, multiplexed bead flow cytometry (AID 1439);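 further: fluorescent Galphao held in activated GDP-AlF4 state binding bead-coupled RGS7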
Settings: at 10 µM, actives lie on both sides

| SMILES | binding response (% of control) |
| --- | --- |
| OCCNc1nc2nonc2nc1NCCO | inconclusive: 108% |
| Cc1ccc(C2CC(c3ccc(C)cc3)n3nc(N)nc3N2)cc1 (stereo unspecified) | inactive: 103% |
| Cc1ccc(-n2c(SCC(=O)N/N=C/c3ccccc3C(=O)O)nnc2-c2ccccc2)cc1 | inconclusive: 99.7% |
| Cc1[nH]nc2c1C(C(C)c1ccccc1)C(C#N)=C(N)O2 (stereo unspecified) | inactive: 105% |
| CN(C[C@H](Cc1ccccc1)N(C[C@H](Cc1cccc2ccccc12)N(CCc1ccccc1)N=O)N=O)N=O | inconclusive: 47% |
| Cc1noc(C)c1C(=O)N1CCCC(C(=O)c2cccc(OC(C)C)c2)C1 (stereo unspecified) | inactive: 105% |
| Cc1ccc(NC2=C/C(=N/S(=O)(=O)c3cccs3)c3ccccc3C2=O)cc1C | inactive: 98.8% |
| Cn1nc(C(C)(C)C)c([N+](=O)[O-])c1C(N)=O | inconclusive: 93.2% |
| CCOc1ccc(CCN2C(=O)C(=O)N([C@H](CCCN(C)Cc3ccccc3)CNCc3ccccc3)C[C@@H]2C(C)C)cc1 | inconclusive: 104% |
| CCOC(=O)CNC(=O)Cc1ccc(Cl)cc1 | inconclusive: 122% |
| Cc1cc(-c2ccccc2)nc2cc(C(=O)NCc3ccco3)nn12 | inconclusive: 64.7% |
| Cc1ccccc1NC(=O)C[n+]1cc(-c2ccccc2)n2c1CCC2 | inconclusive: 189% |
| Cc1[nH]c2c([N+](=O)[O-])cccc2c1C | inconclusive: 91.3% |
| CCCCOc1ccc(CN=C(N)N)cc1Cl | inconclusive: 85% |
| CCCN(CCC)c1nc(C#N)nc(N(CCC)CCC)n1 | inactive: 54.4% |
| O=C(NCc1ccccc1Cl)C1CCC(CNc2c(N3CCOCC3)c(=O)c2=O)CC1 (stereo unspecified) | inconclusive: 128% |
| CN(C)S(=O)(=O)c1cccc(NC(=O)CSc2nncn2C)c1 | inconclusive: 102% |
| Cn1nc(C(C)(C)C)cc1NC(=O)Nc1ccc(F)cc1F | inconclusive: 99.3% |
| COCCCNCCOCCOc1ccc(Cl)cc1C(C)(C)C | inactive: 110% |

| SMILES | binding response (% of control) |
| --- | --- |
| Cc1cccc(NC(=O)c2cc([N+](=O)[O-])ccc2N2CCN(C)CC2)c1 | inconclusive: 121% |
| O=[N+]([O-])c1ccc(/C=N/NC(=S)Nc2ccc(Cl)cc2Cl)s1 | inconclusive: 63.6% |
| COc1cc(-c2cc(=O)c3c(O)c(OC)c(OC)c(OC)c3o2)cc(OC)c1OC | inconclusive: 65.2% |
| O=C1NC2(CCCCCCC2)C(=O)N1Cc1ccc(F)cc1 | inconclusive: 101% |
| CCSC1=C(C#N)C2(CCCCC2)C(C#N)C(=O)N1 (stereo unspecified) | inactive: 87.8% |
| CCC(C)(C(=O)NC1CCCC1)N(C(=O)c1cnccn1)c1c(C)n(C)n(-c2ccccc2)c1=O (stereo unspecified) | inactive: 99.1% |
| COc1ccc(C(=O)Nc2ccc(-c3nnn(CC(=O)NCc4ccco4)n3)cc2)cc1 | inconclusive: 105% |
| O=C(O)c1cn(Cc2ccccn2)c(=O)c2ccccc12 | inconclusive: 81.4% |
| O=C(C=C1CCN(c2ncc(C(F)(F)F)cc2Cl)CC1)NNC(=O)Nc1ccc(Cl)cc1 | inactive: 98.8% |
| O=C(Cn1cnc2scc(-c3ccc(Cl)cc3)c2c1=O)N1CCOCC1 | inconclusive: 111% |
| CCCCn1nc(C(=O)OCC(=O)Nc2sccc2C(N)=O)c2ccccc2c1=O | inconclusive: 83.3% |
| O=C(c1ccccc1)N1CCN(c2ccc([N+](=O)[O-])cc2-n2cccc2)CC1 | inconclusive: 82.9% |
| O=C(c1nc2ccccn2c1CNCCn1ccc2ccccc21)N1CCOCC1 | inconclusive: 128% |
| O=C(NC1CC1)c1ccc(-n2cccc2)cc1 | inconclusive: 105% |
| CCOC(=O)CN(C)S(=O)(=O)c1ccc(-c2cc(C(=O)OC)sc2C(F)(F)F)cc1 | inconclusive: 74.4% |
| N#CCCN(C(=O)COc1ccc(Cl)cc1Cl)c1ccccc1 | inactive: 102% |
| COc1ccc(NC(=O)Cn2cnc3sc(C)c(S(=O)(=O)N4CCOCC4)c3c2=O)c(OC)c1 | inactive: 95.8% |
| O=C(O)COCC(=O)Nc1ccc(Oc2ncnc3cc(Cl)ccc23)nc1 | inconclusive: 95.1% |
| CCOC(=O)c1ccc(NC(=S)Nc2ccc(C)cc2)cc1 | inconclusive: 97.2% |

| SMILES | binding response (% of control) |
| --- | --- |
| Cn1c(Cn2nnc3ccccc32)nnc1SCC(=O)c1ccccc1F | inactive: 103% |
| COc1ccc(/C=C(\C#N)C(=O)OCC(=O)NC2CC2)cc1 | inconclusive: 98.5% |
| O=C(CC1CCOCC1)Nc1ccc(Cl)c(Cl)c1 | inactive: 93.7% |
| COc1ccc(OCC(O)CN2CCN(c3ccc(Cl)cc3)CC2)cc1 (stereo unspecified) | inconclusive: 111% |
| CCCCC(=O)NCCNC(=O)c1cc(OCC(F)(F)F)ccc1OCC(F)(F)F | inactive: 99.3% |
| Cc1onc(-c2c(F)cccc2Cl)c1C(=O)N1CCN(c2ncc(Br)cn2)CC1 | inconclusive: 122% |
| COc1cccc(C2C([N+](=O)[O-])=C(N)Oc3cc(C)oc(=O)c32)c1 (stereo unspecified) | inconclusive: 111% |
| CC(C)(C)CN1C(=O)C(=O)NC[C@H]1Cc1cccc2ccccc12 | inconclusive: 99.8% |
| CCN(CC)CCCNC(=O)Cn1ccc2ccccc2c1=O | inconclusive: 109% |
| Cc1onc(-c2c(F)cccc2Cl)c1C(=O)ONC(=O)c1ccccc1 | inconclusive: 177% |
| CCCCNC(=O)C(c1ccc(OCC(=O)OC)c(C(=O)OC)c1)N(CCOC)C(=O)CCCCCN1C(=O)NC(c2ccc(-c3ccccc3)cc2)C(C(=O)OCc2ccccc2)=C1C (stereo unspecified) | inconclusive: 84.7% |
| O=C(NCc1cccnc1)c1ccc2c(c1)N(Cc1ccccc1)CCS2 | inconclusive: 140% |
| CCCc1c(C)nn(-c2ncccc2[N+](=O)[O-])c1C | inconclusive: 122% |
| Cc1nc(COc2ccccc2Cl)sc1-c1ccnc(N)n1 | inconclusive: 126% |
| C=C1SC(=Nc2c(C)cccc2Cl)N(C(=O)c2sc3ccccc3c2Cl)C12CCCCC2 | inconclusive: 225% |
| O=[N+]([O-])c1ccc2c(c1)nc1n2CCSC1 | inconclusive: 90.3% |
| Cc1ccc(-n2c(C)nn(CC3CC3)c2=O)cc1 | inconclusive: 115% |
| O=C(C1CC(Cl)CN1S(=O)(=O)c1ccc(Cl)cc1)N1CCOCC1 (stereo unspecified) | inconclusive: 88.3% |

Two entries from above, bar-delimited:
SMILES | binding response (% of control)
COc1ccc(OCC(O)CN2CCN(c3ccc(Cl)cc3)CC2)cc1 (stereo unspecified) | inconclusive: 111%
CCCCC(=O)NCCNC(=O)c1cc(OCC(F)(F)F)ccc1OCC(F)(F)F | inactive: 99.3%

Single entries from the list:
binding response (% of control), `COc1ccc(/C=C(\C#N)C(=O)OCC(=O)NC2CC2)cc1` reads inconclusive: 98.5%
binding response (% of control), `O=C(C1CC(Cl)CN1S(=O)(=O)c1ccc(Cl)cc1)N1CCOCC1` (stereo unspecified) reads inconclusive: 88.3%
